System: dd-strain male mice
Conditions: deaths 72 hours after administration
Protocol: The lethal dose was estimated from the death of animals 72 hours after administration.

CN1C(=O)CN=C(c2ccccc2)c2cc(Cl)ccc21 [diazepam, reference compound]
acute toxicity i.p. (lethal dose): 300 to 1000 mg/kg
